# Measured values from PMC8967839.
# B1: CcmM (protein, UniProt Q8YYI3 1-555)
# chain: MAVRSTAAPPTPWSRSLAEAQIHESAFVHPFSNIIGDVHIGANVIIAPGTSIRADEGTPFHIGENTNIQDGVVIHGLEQGRVVGDDNKEYSVWVGSSASLTHMALIHGPAYVGDNSFIGFRSTVFNAKVGAGCIVMMHALIKDVEVPPGKYVPSGAIITNQKQADRLPDVQPQDRDFAHHVIGINQALRAGYLCAADSKCIAPLRNDQVKSYTSTTVIGLERSSEVASNSLGAETIEQVRYLLEQGYKIGSEHVDQRRFRTGSWTSCQPIEARSVGDALAALEACLADHSGEYVRLFGIDPKGKRRVLETIIQRPDGVVAGSTSFKAPASNTNGNGSYHSNGNGNGYSNGATSGKVSAETVDQIRQLLAGGYKIGTEHVDERRFRTGSWNSCKPIEATSAGEVVAALEECIDSHQGEYIRLIGIDPKAKRRVLESIIQRPNGQVAPSSSPRTVVSASSASSGTATATATRLSTEVVDQVRQILGGGYKLSIEHVDQRRFRTGSWSSTGAISATSEREAIAVIEASLSEFAGEYVRLIGIDPKAKRRVLETIIQRP
# B2: RbpE (protein, UniProt Q9WX37 1-99)
# chain: MSIYVGNLSYSVTQDDLTKVFSEYGSVTRVQLPTDRETGRVRGFGFVEMESSAAEDAAIQALDGAEWMGRVLKVNKARPREEKGARSGGGSWSRNNGGY
# B3: InfC (protein, UniProt Q8YNE3 1-177)
# chain: MPVIEKKRTRDLPQINERIRFPKIRVIDTDGSQLGILTPQEALQLAEEKELDLVLLSDKADPPVCRIMDYGKYKFEQEKKAREARKKQHTADVKEVKMRYKIEEHDYNVRVKQAERFLKDGDKVKATVMFRGREIQHSDLAEDLLKRMATDLEPFGEVQQAPKKEGRNMMMLISPKK
# B4: Hup (protein, UniProt P05514 1-94)
# chain: MNKGELVDAVAEKASVTKKQADAVLTAALETIIEAVSSGDKVTLVGFGSFESRERKAREGRNPKTNEKMEIPATRVPAFSAGKLFREKVAPPKA
# B5: L23 (protein, UniProt Q8YPI1 1-104)
# chain: MAKFDPRNLPDLVRRPILTEKATIMMEQNKYTFEVTPKASKPQIRAAIEDLFQVKVVKVNTALPPRRKKRVGKFIGFKPQYKKAIVTIAPGDVDKIRQVLFPEV
# B6: CpcG2 (protein, UniProt P29987 1-247)
# chain: MSIPLLEYKPSSQNQRVPGYEVPNEDTPRIYRIEDAAYDSELKELIWATYRQVFSEHVILKFFRQGNLESQLKNRAISVRDFVRGLAKSEAFKTLVIKSNSNYRLVELALKRLLGRAPYNKDEEIAWSIKIATNGWDGFVDALLDSEEYQSNFGENIVPYQRRRYKDRPFNLVTPRYGNYWRDKLESERYIEGDIKNFLELAKSIEIKTVTFTPVSTANIKIPDTTRNTTPTGIPISVNPSANFPVR
# B7: ApcE (protein, UniProt P80559 1-1132)
# chain: MSVKASGGSSVARPQLYQTLAVATITQAEQQDRFLGRGELDELASYFASGAKRLEIAQLLTENSEIIVSRAANRIFVGGSPMAFLEKPREPELAMAAVGGGGDVRESMKLGTVTYVETRGGFLENLRSIFNTSPSGPTPPGFRPINIARYGPSNMAKSLRDLSWFLRYATYAIVAGDPNIIVVNTRGLREIIENACSGEATIVALQEIKAASLSYFRKDPEAAEIVSQYMDVLITEFKAPTPSNKLRQRPSGDQQGLQLPQIYFSAAERRPKFVMKTGLSATEKNEVIKAAYRQIFERDITRAYSLSISDLESKVKNGDISMKEFVRRLAKSPLYQKQFYQPFINSRVIELAFRHILGRGPSSREEVQKYFSIISNGGLPALVDALVDSAEYSDYFGEETVPYLRGLGQEAQECRNWGPQQDLFNYSAPFRKVPQFITTFAAYDRPLPDQHPYGSGNDPLEIQFGAIFPKETRNPSTSPAPFGKDTRRILIHQGPGINNQVSNPSARGLAPGSLGPKVFKLDQLPGTIGKKAAKGASVKFSESSTQAVIKATYLQVFGRDVYEGQRLKVQEIKLENGEISVRDFVRALAKSDLFRKLYWTPFYVCKAIEYIHRRLLGRPTYGRQENNKYFDIASKKGLYAVVDAILDSLEYTETFGEDTVPYERYLTPAGVALRQLRVGTIREDVANVEKQETPRFVELGTVKENRTQPDIDFRINQGVTKQREQTKVFKRVAGIKDKAAIKTLISAAYRQIFERDIAPYIAQNEFSGWESKLGNGEITVKEFIEGLGYSNLYLKEFYTPYPNTKVIELGTKHFLGRAPIDQAEIRKYNQILATQGIRAFINALVNSQEYNEVFGEDTVPYRRFPTLPAANFPNTQKLYNQLTKQNNDVVIPSFKPVQARIQSDKTPILAKAIADLAAQAKQMDKSKPLFIELGRSYNDGRGQSVEVGVGTTRRKPARIYRLTNGIGQAEKQLVINAIYRQVLDVFSGQVPDYYRRTELDSKLRNGEISVREFVREIASSEIYRKRFYTPYPNTKVIEFLFRHLLGRAPATQGEIRQYNKLLADNGLRAAVEAIVDSPEYSRYFGEDVVPYPRFPSLPAGNYLGSVQAAADLVKQSWSSLSPSTLTGRPGDR
# B8: ApcA1 (protein, UniProt P80555 1-161)
# chain: MSIVTKSIVNADAEARYLSPGELDRIKSFVAGGQQRLRIAQALTDNRERLVKQAGDQLFQKRPDVVSPGGNAYGQEMTATCLRDLDYYLRLVTYGIVAGDVTPIEEIGVIGVREMYKSLGTPIEAVGEGVRALKNAASTLLSAEDAAEAGSYFDYVVGALQ
# B9: CpcG4 (protein, UniProt P29989 1-253)
# chain: MALPLLQYKPSSQNHRVTSFGAADQNEDTPYIYRIEDVSSYTDIQNIIWASYRQVFSEHEILKFNRQKTLESQVKNGSISVRDFIRGLAKSEAFYRLVVSVNNNYRLVDITLKRLLGRSSYNKDEQIAWSIVIGTKGFSGFVDALIDSEEYTKNFGENIVPYQRKRMEGRPHNLVTPRYGEDFQEKAGTVQTDWRFTLDKFYSRKSQEKQLREGDPRKFADLAASVGNQGNYAQRISAFDIDYLNAVPNRSRR
# B10: ApcC (protein, UniProt P80558 1-68)
# chain: MSRLFKITALVPSLSRTRTQRELQNTYFTKLVPYENWFREQQRIQKAGGKIIKVELATGKQGTNAGLQ
# B11: PecC (protein, UniProt P31329 1-278)
# chain: MSSSVAERLAIRDAIGNKVELRQNWSEDDLQKVFRAAYEQIFGRQGIYASQKFTSAEALLRNGKISVRQFVEILAKSEFYKECFFYKNSQVRLIELNYKHLLGRAPYDQSEIADHVDIYAARGYDADIDAYIYSSEYENAFGNSIVPYYRGFQSIPGMKTVGFNRICELYRGRGNSDNAQMGRTNSRLRTKVSLNLPNGILPPTSAGTNFVSAAPTLISSATKGDNRMFVIEAIAGGLNTNVAVRRSRQVYTVSYERLSATYQEIHKRGGKIVKISQV
# B12: ApcB (protein, UniProt P80557 1-162)
# chain: MAQDAITAVINSADVQGKYLDTAALEKLKAYFSTGELRVRAATTISANAAAIVKEAVAKSLLYSDITRPGGNMYTTRRYAACIRDLDYYLRYATYAMLAGDPSILDERVLNGLKETYNSLGVPVGATVQAIQAIKEVTASLVGADAGKEMGIYLDYISSGLS
# B13: L14 (protein, UniProt Q8YPI9 1-122)
# chain: MIQPQTYLNVADNSGARKLMCIRVLGAGNSRYGFIGDKIIAVVKDATPNMAVKKSDVVEAVIVRTRHHIRRDSGMTIRFDDNAAVIINKDGNPRGTRVFGPVARELRDKNFTKIVSLAPEVL
# B14: AtpC (protein, UniProt P12408 1-315)
# chain: MPNLKSIRDRIQSVKNTKKITEAMRLVAAARVRRAQEQVIATRPFADRLAQVLYGLQTRLRFEDVDLPLLKKREVKSVGLLVISGDRGLCGGYNTNVIRRAENRAKELKAEGLDYTFVIVGRKAEQYFRRREQPIDASYTGLEQIPTADEANKIADELLSLFLSEKVDRIELVYTRFVSLVSSRPVIQTLLPLDTQGLEAADDEIFRLTTRGGQFQVERQTVTSQARPLPRDMIFEQDPVQILDSLLPLYLSNQLLRALQESAASELAARMTAMSNASENAGELIKSLSLSYNKARQAAITQELLEVVGGAEALT
# Biological target: anaCyp40 with C-terminal Strep-tag (Anabaena sp. PCC 7120)
# Experiment: affinity purification with mass spectrometry; Strep-tagged anaCyp40 from whole cell lysate of AFS-anacyp40-strep (1% β-DM, 100 mM Tris pH 8.0, 50 mM NaCl) on MagStrep type3 XT beads, 60 min at 4 °C; washes up to 100 mM NaCl and 0.5% Nonidet P-40; eluted with 50 mM D-biotin; wild-type Anabaena sp. as control; lysate not treated with RNAse or DNAse; LC-MS, p < 0.05
row,Binder,binding
1,B1,binds
2,B2,binds
3,B3,binds
4,B4,binds
5,B5,binds
6,B6,binds
7,B7,binds
8,B8,binds
9,B9,binds
10,B10,binds
11,B11,binds
12,B12,binds
13,B13,binds
14,B14,binds

# No constants are given. Whether binding was seen depends on the method and setting. Binding seen in cells or lysates may run through a third protein. Here binding means that the protein was enriched with, or labelled near, the bait; the list need not be complete.
